Not every detail of the peptide structures is certain; ends, links or a residue may be inferred. Square brackets hold non-standard residues; d marks the D form. Peptide text beside a SMILES is read from it. MeBmt = C/C=C/C[C@@H](C)[C@@H](O)[C@H](NC)C(=O)O; NMeL = CN[C@@H](CC(C)C)C(=O)O; NMeV = CN[C@H](C(=O)O)C(C)C; Nva = CCC[C@H](N)C(=O)O; Sar = CNCC(=O)O
Assays:
[1] = system: concanavalin A stimulated mouse-spleen lymphocytes; assay: Test 1.2 Lymphocyte stimulation test according to Janossy and Greaves; assay type: cell-based; conditions: concentration giving 50% inhibition compared with untreated controls
adjuvant arthritis = assay: Test 2 Adjuvant arthritis test in the rat; assay type: in vivo; conditions: for TEST 2 ED50 TT: TT = therapeutic treatment (established arthritis)
[2] = system: lymphocytes [mouse (Balb/c) spleen cells] co-incubated with allogenic spleen cells from irradiated mice (CBA); assay: Test 1.3 Mixed lymphocyte reaction; assay type: cell-based; conditions: concentration giving 50% inhibition compared with untreated controls; 5 days co-incubation
[3] = system: Plasmodium berghei (strain NK 65); assay: Test 3 Anti-malaria test according to L. Rane; assay type: in vivo, Plasmodium berghei in mice (OFI); conditions: dosage at which survival time is doubled; s.c. on day 3, mice

Compound	TEST 1.2 IC50 [1] [µg/mL]	TEST 2 ED50 TT (adjuvant arthritis) [mg/kg p.o.]	TEST 1.3 IC50 [2] [µg/mL]	TEST 3 MED (minimum effective dosage) [3] [mg/kg s.c.]	TEST 2 ED50 PT (adjuvant arthritis; PT = preventive treatment (developing arthritis)) [mg/kg p.o.]
C/C=C/C[C@@H](C)[C@@H](O)[C@H]1C(=O)N[C@@H](CCC)C(=O)N(C)CC(=O)N(C)[C@@H](CC(C)C)C(=O)N[C@@H](C(C)C)C(=O)N(C)[C@@H](CC(C)C)C(=O)N[C@@H](C)C(=O)N[C@H](CO)C(=O)N(C)[C@@H](CC(C)C)C(=O)N(C)[C@@H](CC(C)C)C(=O)N(C)[C@@H](C(C)C)C(=O)N1C [B, [Nva]^2-[(D)Ser]^8 -Cyclosporine] (cyclo(A[dS][NMeL][NMeL][NMeV][MeBmt][Nva][Sar][NMeL]V[NMeL]))	< 0.04	20	0.014	50	
C/C=C/C[C@@H](C)[C@@H](O)[C@H]1C(=O)N[C@@H](CC)C(=O)N(C)CC(=O)N(C)[C@@H](CC(C)C)C(=O)N[C@@H](C(C)C)C(=O)N(C)[C@@H](CC(C)C)C(=O)N[C@@H](C)C(=O)N[C@H](COC(C)=O)C(=O)N(C)[C@@H](CC(C)C)C(=O)N(C)[C@@H](CC(C)C)C(=O)N(C)[C@@H](C(C)C)C(=O)N1C [Example 1, [(O-acetyl)-(D)Ser]^8 -Cyclosporine]	< 0.008	12	< 0.04	25	< 6
C/C=C/C[C@@H](C)[C@@H](O)[C@H]1C(=O)N[C@@H](CC)C(=O)N(C)CC(=O)N(C)[C@@H](CC(C)C)C(=O)N[C@@H](C(C)C)C(=O)N(C)[C@@H](CC(C)C)C(=O)N[C@@H](C)C(=O)N[C@H]([C@H](C)O)C(=O)N(C)[C@@H](CC(C)C)C(=O)N(C)[C@@H](CC(C)C)C(=O)N(C)[C@@H](C(C)C)C(=O)N1C [A, [(D)Thr]^8 -Cyclosporine]	0.0016	13	0.008	50	
C/C=C/C[C@@H](C)[C@@H](O)[C@H]1C(=O)N[C@@H](CCC)C(=O)N(C)CC(=O)N(C)[C@@H](CC(C)C)C(=O)N[C@@H](CCC)C(=O)N(C)[C@@H](CC(C)C)C(=O)N[C@@H](C)C(=O)N[C@H](CO)C(=O)N(C)[C@@H](CC(C)C)C(=O)N(C)[C@@H](CC(C)C)C(=O)N(C)[C@@H](C(C)C)C(=O)N1C [C, [Nva]^2-[Nva]^5-[(D)Ser]^8 -Cyclosporine] (cyclo(A[dS][NMeL][NMeL][NMeV][MeBmt][Nva][Sar][NMeL][Nva][NMeL]))	< 0.04		< 0.008	100	

— patent US4639434A, “Novel cyclosporins” (Sandoz Ltd., priority 1984, dated 1987)
